PubChem BioAssay AID504805 | Drosophila RNAi Screening Center – 2011
Aim: 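Fly genes required for export of polyadenylated mRNA from the nucleus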 (primary screen). System: Drosophila S2R+ cells. Knock-down reagent: long dsRNA against Drosophila genes, 0.25 µg dsRNA per well. Timing: 4 days. Measurement: 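Poly(A) RNA detected by in situ hybridisation with a fluorescent oligo-dT probe, nuclei stained with a DNA dye; images judged by eye, phenotype noted per replicate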.
The reagents shown are a selection, not the whole library. 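Phenotypes are words from visual inspection of images, not measured scores.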 A plus sign joins genes that one reagent is predicted to hit. Not all columns of the deposit are shown. No sequences are given here.

phenotype, replicate 1, by predicted target and reagent
RpS4: DRSC11272 poly(A) RNA held back in the nucleus
mira: DRSC16998 poly(A) RNA held back in the nucleus
Pp2B-14D: DRSC20270 poly(A) RNA held back in the nucleus
Rrp6: DRSC16223 poly(A) RNA held back in the nucleus
Papst2: DRSC10924 poly(A) RNA held back in the nucleus
ZnT77C: DRSC11766 poly(A) RNA held back in the nucleus
chp: DRSC16925 poly(A) RNA held back in the nucleus
CG31523: DRSC12009 poly(A) RNA held back in the nucleus
CycD: DRSC20233 poly(A) RNA held back in the nucleus
ssx: DRSC18492 poly(A) RNA held back in the nucleus
CG3123: DRSC00570 poly(A) RNA held back in the nucleus
CG30414: DRSC04372 poly(A) RNA held back in the nucleus
fru: DRSC21600 poly(A) RNA held back in the nucleus
CG34149: DRSC14537 poly(A) RNA held back in the nucleus
Socs36E: DRSC02455 poly(A) RNA held back in the nucleus
Alg9: DRSC14407 poly(A) RNA held back in the nucleus
PpY-55A: DRSC23328 poly(A) RNA held back in the nucleus
CG12934: DRSC06247 poly(A) RNA held back in the nucleus
fid: DRSC16464 poly(A) RNA held back in the nucleus
CG15740: DRSC19706 poly(A) RNA held back in the nucleus
Trl + CG42507: DRSC11308 poly(A) RNA held back in the nucleus
dpr12: DRSC04814 poly(A) RNA held back in the nucleus
Gbs-76A: DRSC11081 poly(A) RNA held back in the nucleus
knk: DRSC15993 poly(A) RNA held back in the nucleus
sbr: DRSC20368 poly(A) RNA held back in the nucleus
CG31038: DRSC16327 poly(A) RNA held back in the nucleus
Oli: DRSC02866 poly(A) RNA held back in the nucleus
CG1835: DRSC20560 poly(A) RNA held back in the nucleus
sns: DRSC06423 poly(A) RNA held back in the nucleus; DRSC07692 poly(A) RNA held back in the nucleus
Idgf2: DRSC03350 poly(A) RNA held back in the nucleus
CG6153: DRSC02935 poly(A) RNA held back in the nucleus
CG13151: DRSC06276 poly(A) RNA held back in the nucleus
CG10352: DRSC19353 poly(A) RNA held back in the nucleus
myd: DRSC14762 poly(A) RNA held back in the nucleus
Klc: DRSC11203 poly(A) RNA held back in the nucleus
MTF-1: DRSC11217 poly(A) RNA held back in the nucleus
Acbp4: DRSC11023 poly(A) RNA held back in the nucleus
nAChRalpha1: DRSC13664 poly(A) RNA held back in the nucleus
Wdr82: DRSC21723 poly(A) RNA held back in the nucleus
Cpr35B: DRSC01949 poly(A) RNA held back in the nucleus
CG14632 (retired record): DRSC17942 poly(A) RNA held back in the nucleus
CG31904 + CG13796: DRSC22161 poly(A) RNA held back in the nucleus
CG15296: DRSC17983 poly(A) RNA held back in the nucleus
CG5543: DRSC04511 poly(A) RNA held back in the nucleus
Taf4: DRSC11297 poly(A) RNA held back in the nucleus
Naa30A: DRSC18583 poly(A) RNA held back in the nucleus
CG13062: DRSC09945 poly(A) RNA held back in the nucleus
Arl5: DRSC10785 poly(A) RNA held back in the nucleus
Pdp1: DRSC08897 poly(A) RNA held back in the nucleus
GstD5: DRSC16686 poly(A) RNA held back in the nucleus
CG17211: DRSC02587 poly(A) RNA held back in the nucleus
Kebab: DRSC00827 poly(A) RNA held back in the nucleus
RpL17: DRSC18293 poly(A) RNA held back in the nucleus
CCHa2: DRSC14835 poly(A) RNA held back in the nucleus
CR11700 (retired record): DRSC17794 poly(A) RNA held back in the nucleus
ASPP: DRSC04305 poly(A) RNA held back in the nucleus
grh: DRSC07625 poly(A) RNA held back in the nucleus
Rm62: DRSC12365 poly(A) RNA held back in the nucleus
twi: DRSC04720 poly(A) RNA held back in the nucleus
CG15358: DRSC00388 poly(A) RNA held back in the nucleus
fs(1)K10: DRSC18775 poly(A) RNA held back in the nucleus
CG30376: DRSC05086 poly(A) RNA held back in the nucleus
Prosbeta6: DRSC11256 poly(A) RNA held back in the nucleus
iPLA2-VIA: DRSC10699 poly(A) RNA held back in the nucleus
CG34452: DRSC09387 poly(A) RNA held back in the nucleus
Fbp2: DRSC03327 poly(A) RNA held back in the nucleus
Gmppb: DRSC12169 poly(A) RNA held back in the nucleus
CG3566: DRSC18311 poly(A) RNA held back in the nucleus
CG15365: DRSC23021 poly(A) RNA held back in the nucleus
mbl: DRSC06449 poly(A) RNA held back in the nucleus
CG12236: DRSC17830 poly(A) RNA held back in the nucleus; DRSC17831 poly(A) RNA held back in the nucleus
Achl: DRSC06665 poly(A) RNA held back in the nucleus
Atpalpha: DRSC14119 poly(A) RNA held back in the nucleus
Hk: DRSC18674 poly(A) RNA held back in the nucleus

Copied from above for reference:
phenotype, replicate 1, by predicted target and reagent
CG14632 (retired record): DRSC17942 poly(A) RNA held back in the nucleus
CG31904 + CG13796: DRSC22161 poly(A) RNA held back in the nucleus
CG15296: DRSC17983 poly(A) RNA held back in the nucleus
CG5543: DRSC04511 poly(A) RNA held back in the nucleus
Taf4: DRSC11297 poly(A) RNA held back in the nucleus
Naa30A: DRSC18583 poly(A) RNA held back in the nucleus
CG13062: DRSC09945 poly(A) RNA held back in the nucleus
Arl5: DRSC10785 poly(A) RNA held back in the nucleus
Pdp1: DRSC08897 poly(A) RNA held back in the nucleus
GstD5: DRSC16686 poly(A) RNA held back in the nucleus
CG17211: DRSC02587 poly(A) RNA held back in the nucleus
Kebab: DRSC00827 poly(A) RNA held back in the nucleus
RpL17: DRSC18293 poly(A) RNA held back in the nucleus
CCHa2: DRSC14835 poly(A) RNA held back in the nucleus
CR11700 (retired record): DRSC17794 poly(A) RNA held back in the nucleus
ASPP: DRSC04305 poly(A) RNA held back in the nucleus

More records follow.
phenotype, replicate 1, by predicted target and reagent
sona: DRSC04574 poly(A) RNA held back in the nucleus
betaNACtes1: DRSC19534 poly(A) RNA held back in the nucleus
CG15147: DRSC02447 poly(A) RNA held back in the nucleus
Cpr47Ee: DRSC06343 poly(A) RNA held back in the nucleus
b6: DRSC18740 poly(A) RNA held back in the nucleus
Nlg4: DRSC15701 poly(A) RNA held back in the nucleus
RpL32: DRSC16835 poly(A) RNA held back in the nucleus
CG3124: DRSC04339 poly(A) RNA held back in the nucleus
Mob2: DRSC09119 poly(A) RNA held back in the nucleus
CG31436: DRSC14661 poly(A) RNA held back in the nucleus
Sh: DRSC19220 poly(A) RNA held back in the nucleus
Syx17: DRSC08591 poly(A) RNA held back in the nucleus
CG11858: DRSC14412 poly(A) RNA held back in the nucleus
tho2: DRSC00646 poly(A) RNA held back in the nucleus
SmE: DRSC02680 poly(A) RNA held back in the nucleus
Rbm13: DRSC17749 poly(A) RNA held back in the nucleus
CG12691: DRSC17880 poly(A) RNA held back in the nucleus
CG9630: DRSC16527 poly(A) RNA held back in the nucleus
ocn: DRSC17020 poly(A) RNA held back in the nucleus
Neos: DRSC11235 poly(A) RNA held back in the nucleus
CG34178 + CG34177: DRSC00351 poly(A) RNA held back in the nucleus
PGRP-LD + Pmi: DRSC10512 poly(A) RNA held back in the nucleus
Rbp4: DRSC16818 poly(A) RNA held back in the nucleus
MAGE: DRSC12504 poly(A) RNA held back in the nucleus
RpS7: DRSC15394 poly(A) RNA held back in the nucleus
norpA: DRSC18806 poly(A) RNA held back in the nucleus
Acyp: DRSC01861 poly(A) RNA held back in the nucleus
Dys: DRSC13360 poly(A) RNA held back in the nucleus
JIL-1: DRSC11200 poly(A) RNA held back in the nucleus
CG15577: DRSC18065 poly(A) RNA held back in the nucleus
chinmo: DRSC00485 poly(A) RNA held back in the nucleus
luna: DRSC06663 poly(A) RNA held back in the nucleus
CG31211: DRSC14953 poly(A) RNA held back in the nucleus
RpLP1: DRSC22145 poly(A) RNA held back in the nucleus
Rpn8: DRSC04624 poly(A) RNA held back in the nucleus
yem: DRSC14865 poly(A) RNA held back in the nucleus
zuc: DRSC02160 poly(A) RNA held back in the nucleus
CG7214: DRSC03028 poly(A) RNA held back in the nucleus
trr: DRSC23290 poly(A) RNA held back in the nucleus
CG34347: DRSC14305 poly(A) RNA held back in the nucleus
E23: DRSC00425 poly(A) RNA held back in the nucleus
noi: DRSC12383 poly(A) RNA held back in the nucleus
CG2063: DRSC06811 poly(A) RNA held back in the nucleus
LanA: DRSC11207 poly(A) RNA held back in the nucleus
CG3081: DRSC18571 poly(A) RNA held back in the nucleus
RpS3A: DRSC17168 poly(A) RNA held back in the nucleus
Syt1: DRSC00156 poly(A) RNA held back in the nucleus; DRSC00158 poly(A) RNA held back in the nucleus
CG17597: DRSC02630 poly(A) RNA held back in the nucleus
soti: DRSC16432 poly(A) RNA held back in the nucleus
RpS24: DRSC04414 poly(A) RNA held back in the nucleus
CG8119: DRSC20083 poly(A) RNA held back in the nucleus
SK: DRSC17888 poly(A) RNA held back in the nucleus
CG14839: DRSC14963 poly(A) RNA held back in the nucleus
Hrd3: DRSC14156 poly(A) RNA held back in the nucleus
CG13743: DRSC06414 poly(A) RNA held back in the nucleus
CG12643: DRSC17849 poly(A) RNA held back in the nucleus
pros: DRSC17032 poly(A) RNA held back in the nucleus
